Test results published in patent publication US8216786B2, “Genetic polymorphisms associated with cardiovascular diseases, methods of detection and uses thereof” (Celera Corporation, priority 2008, dated 2012).
At least one structure is not confirmed: it was looked up by name or label, or the drawing left a doubt.

Test system: individuals who have previously had an MI
Test: CARE trial: effect of pravastatin vs placebo on coronary events (endpt1, rmi) by SNP genotype subgroup
Type: in vivo, human
Conditions: 40 mg pravastatin once daily vs placebo, P-interaction between statin treatment and genotype <0.1
Experimental: In Tables 21-22, the column labeled “Endpoint” indicates whether the endpoint that was analyzed was the primary endpoint of the CARE study (a composite endpoint of fatal coronary event or nonfatal MI, and identified as “endpt1”) or a composite endpoint of confirmed fatal or nonfatal MI (identified as “rmi”). […] As used herein, the term “benefit” (with respect to a preventive or therapeutic drug treatment) is defined as achieving a reduced risk for a disease that the drug is intended to treat or prevent (e.g., CVD such as CHD, particularly MI, or hypertension) by administering the drug treatment, compared with the risk for the disease in the absence of receiving the drug treatment (or receiving a placebo in lieu of the drug treatment) for the same genotype. […] J. […] (1996) New England Journal of Medicine 335: 1001-1009. […] A well-documented MI was one of the enrollment criteria for entry into the CARE study. Patients were enrolled in the CARE trial from 80 participating study centers. […] In Table 21, p-interaction values were calculated. […]

For `CC[C@H](C)C(=O)O[C@H]1C[C@H](O)C=C2C=C[C@H](C)[C@H](CC[C@@H](O)C[C@@H](O)CC(=O)O)[C@H]21` [pravastatin], the “effect of pravastatin on the primary endpoint of the CARE study or the recurrent MI endpoint, analyzed by genotype subgroups” value was “reduced risk in one genotype subgroup but not in another”.
